Test: NIR fluorescence imaging of mouse phantoms with heart port filled with FBS and dye stock aliquot
Conditions: fresh stock solutions, final dye 2 μM in FBS

CC1(C)C(/C=C/C=C/C=C/C=C2/N(CCCCS(=O)(=O)[O-])c3ccc4ccccc4c3C2(C)C)=[N+](CCCCS(=O)(=O)[O-])c2ccc3ccccc3c21.[Na+] [ICG, Indocyanine Green]
Image intensity of heart region compared with ICG-d5: no difference in image intensities
